Measured values as given in PubChem BioAssay AID1381 (University of Pittsburgh Molecular Library Screening Center, 2008).
The list shows a part of the results. Some salts or complexes appear as unconnected parts, following the source record.

Assay: inhibitors of GR-EGFP nuclear translocation, primary screen, dynein cargo transport inhibitor project, imaging, high-content, 3617.4 mouse cells (AID 1381)
Details: stimulated with dexamethasone, 1 µM
[1] = measured here: cell count per field, at 20 µM
[2] = measured here: cytoplasmic GR-EGFP intensity, at 20 µM, stronger effect = higher value
[3] = measured here: nuclear GR-EGFP intensity, at 20 µM, stronger effect = lower value
[4] = measured here: cell count per field, at 50 µM
[5] = measured here: cytoplasmic GR-EGFP intensity, at 50 µM, stronger effect = higher value
[6] = measured here: nuclear GR-EGFP intensity, at 50 µM, stronger effect = lower value

SMILES | z-score [1] | z-score [2] | z-score [3] | z-score [4] | z-score [5] | z-score [6]
COc1ccccc1OP(=O)(Nc1ccc(C)cn1)Oc1ccccc1OC | -1.32 | -0.0201 | 2.12 | – | – | –
Cc1ccc(OP(=O)(Nc2nccs2)Oc2ccc(C)cc2)cc1 | -0.32 | -0.0302 | 0.731 | – | – | –
Cc1nc2ccc3ccccc3c2o1.O=[N+]([O-])c1cc([N+](=O)[O-])c(O)c([N+](=O)[O-])c1 | 0.0796 | -0.102 | -0.138 | – | – | –
Nc1cccc2ccc([As](=O)(O)O)cc12 | 0.0841 | -0.215 | -0.00661 | – | – | –
CP(=O)(OCCOc1ccccc1)OCCOc1ccccc1 | 0.307 | -0.126 | 0.342 | – | – | –
CP(=O)(Nc1ccc(Cl)cc1Cl)Oc1ccccc1 (stereo not drawn) | -0.039 | -0.239 | -0.00561 | – | – | –
CCN(N=Nc1nonc1N)c1nonc1N | 0.35 | -0.247 | 0.0558 | – | – | –
Cc1cc(C)cc(OP(C)(=O)Nc2cccc(C(F)(F)F)c2)c1 (stereo not drawn) | 0.455 | -0.358 | 0.0954 | – | – | –
O=P(Nc1nc2ccc(Cl)cc2s1)(c1ccccc1)c1ccccc1 | 0.64 | -0.263 | -0.429 | – | – | –
O=C(O)c1ccccc1[As](=O)(O)O | -0.275 | -0.302 | 0.367 | – | – | –
CC(=O)Nc1ccc([As](=O)(O)O)cc1 | 0.308 | -0.133 | -0.135 | – | – | –
COc1ccc(OP(C)(=O)Nc2ccccc2Br)cc1 (stereo not drawn) | -0.163 | -0.0734 | 0.825 | – | – | –
CCOP(=O)(Nc1ccccc1)OCC | -1.3 | -0.25 | 1.11 | 0.789 | -0.195 | -0.613
Cc1cc(SC(NC(=O)c2ccc(F)cc2)C(Cl)(Cl)Cl)ncn1 (stereo not drawn) | -0.172 | -0.226 | 0.0236 | – | – | –
Cc1ccc(NP(=O)(Oc2ccccc2F)Oc2ccccc2F)nc1 | 0.551 | -0.241 | 0.129 | – | – | –
COc1ccccc1OP(C)(=O)Nc1ccc(C)c(C)c1 (stereo not drawn) | -0.11 | -0.346 | -0.0492 | – | – | –
CCC(=O)N1C2C3N(C(=O)CC)C1C1N(C(=O)CC)C(C(N1C(=O)CC)N3C(=O)CC)N2C(=O)CC | 2.69 | -0.244 | -1 | – | – | –
CCN(CC)CCCOC(=O)C(O)(c1ccccc1)C1CCCCC1 (stereo not drawn) | – | – | – | 1.17 | -0.234 | -0.128
COC(=O)c1cc2c(s1)N=C(c1ccccc1)N(C)P2(=O)N1CCOCC1 (stereo not drawn) | 0.31 | -0.315 | -0.115 | – | – | –
CC(=O)NC(SC(=S)N(CC(C)C)CC(C)C)C(Cl)(Cl)Cl (stereo not drawn) | -1.49 | -0.143 | 2.12 | – | – | –
Cc1ccc(OP(=O)(Nc2ccccn2)Oc2ccc(C)cc2)cc1 | -0.548 | 0.199 | 0.584 | – | – | –
Cc1ccccc1OP(=O)(Nc1ccccn1)Oc1ccccc1C | -0.472 | -0.274 | 0.654 | – | – | –
CN(C)C(=O)Oc1noc2ccccc12 | 0.0572 | -0.145 | 0.105 | – | – | –
CCCCCOc1ccc(NP(C)(=O)Oc2ccc(Cl)cc2Cl)cc1 (stereo not drawn) | -0.275 | 0.433 | 0.867 | – | – | –
O=c1c2cc([N+](=O)[O-])ccc2[nH]c2c([N+](=O)[O-])cc([N+](=O)[O-])cc12 | 1.2 | -0.0295 | -1.32 | – | – | –
CP(=O)(Nc1ccccc1)Oc1ccc(F)cc1 (stereo not drawn) | – | – | – | 0.281 | -0.229 | -1.31
c1ccc(-c2nn[nH]n2)c(-c2nn[nH]n2)c1 | -1.15 | 0.0108 | 0.769 | – | – | –
Cc1ccc(NP(=O)(Oc2cccc(C)c2)Oc2cccc(C)c2)nc1 | -0.912 | -0.234 | 1.34 | – | – | –

SMILES | z-score [1] | z-score [2] | z-score [3] | z-score [4] | z-score [5] | z-score [6]
CCOC(=O)NC(Sc1ccccc1)C(Cl)(Cl)Cl (stereo not drawn) | 0.427 | -0.186 | 0.257 | – | – | –
O=C(NC1CCS(=O)(=O)C1)NP(=S)(Oc1ccccc1)Oc1ccccc1 (stereo not drawn) | 0.644 | 1.01 | 0.171 | – | – | –
CCNC(=S)/N=C(\N)N[N+](=O)[O-] | 0.841 | -0.256 | -0.156 | – | – | –
COc1ccc(OP(C)(=O)Nc2ccc(SC(F)(F)F)cc2)cc1 (stereo not drawn) | 0.297 | -0.175 | -0.0643 | – | – | –
CCOC(=O)c1ccc(NP(C)(=O)Oc2ccc(F)cc2)cc1 (stereo not drawn) | 0.1 | 0.00325 | 0.714 | – | – | –
O=C(OCCN1CCN(CCOCc2ccccc2)CC1)C(O)(c1ccccc1)c1ccccc1 | -0.795 | 0.34 | 0.354 | – | – | –
C[C@@H]1C=CCP(=O)(Oc2ccccc2)O1 (stereo partly drawn) | -0.016 | -0.826 | 0.398 | – | – | –
C[C@H]1OP(=O)(Oc2ccccc2)C[C@@H]2O[C@@H]21 (stereo partly drawn) | -0.141 | -0.727 | -0.0554 | – | – | –
O=C(OC1CN2CCC1CC2)c1ccc([N+](=O)[O-])cc1 (stereo not drawn) | 1.03 | -0.196 | -0.382 | – | – | –
COc1ccc2c(c1O)-c1c(O)c(OC)cc3c1[C@H](C2)[N+](C)(C)CC3.O=[N+]([O-])c1cc([N+](=O)[O-])c([O-])c([N+](=O)[O-])c1[O-] | 0.765 | -0.744 | -0.293 | – | – | –
CC(=O)Nc1ccc([As](=O)(O)O)c(O)c1 | -0.652 | -0.228 | 0.472 | – | – | –
CC(=O)Nc1ccc(Oc2c([N+](=O)[O-])cc([N+](=O)[O-])cc2[N+](=O)[O-])cc1 | 0.733 | -0.369 | 0.0501 | – | – | –
O=P1(Nc2nc3ccc(Cl)cc3s2)COc2ccccc2O1 (stereo not drawn) | -0.26 | -0.404 | 0.184 | – | – | –
CCOc1ccc(C2=NCC(CBr)S2)cc1 (stereo not drawn) | -2.17 | 0.0559 | 1.59 | – | – | –
CC(C)(C)C(=O)NC(Sc1ccccc1)C(Cl)(Cl)Cl (stereo not drawn) | 0.444 | -0.247 | -0.36 | – | – | –
CC(C)c1ccc(OP(C)(=O)Nc2ccc(SC(F)(F)F)cc2)cc1 (stereo not drawn) | -0.273 | -0.227 | -0.145 | – | – | –
CP(=O)(Nc1ccccc1F)Oc1ccccc1 (stereo not drawn) | 0.444 | -0.242 | 0.129 | – | – | –
CP(=O)(Nc1ccc2c(c1)OCCO2)Oc1ccccc1 (stereo not drawn) | – | – | – | 0.324 | -0.259 | -0.725
Cc1ccccc1NP(C)(=O)Nc1ccccc1C | 1.19 | -0.203 | 0.151 | – | – | –
O=P(Nc1nccs1)(c1ccccc1)c1ccccc1 | – | – | – | -0.484 | -0.0257 | 0.689
CC(C)C(=O)NC(Sc1ccccc1)C(Cl)(Cl)Cl (stereo not drawn) | 1.76 | -0.126 | 0.0739 | – | – | –
CP(=O)(Nc1ccc(SC(F)(F)F)cc1)Oc1ccc(F)cc1 (stereo not drawn) | -1.1 | -0.216 | 0.701 | – | – | –
c1nnnn1CCn1cnnn1 | -0.0992 | -0.199 | 0.266 | – | – | –
CCOP(C)(=S)SCC(=O)NC(C)(CC)C(=O)O (stereo not drawn) | 1.17 | -0.214 | -0.419 | – | – | –
O=[As](O)(c1ccccc1)c1ccc(O)cc1 | 0.407 | -0.255 | -0.119 | – | – | –
Cc1cc(-c2cccc3ccccc23)c(C)cn1.O=[N+]([O-])c1cc([N+](=O)[O-])c(O)c([N+](=O)[O-])c1 | 0.183 | -0.231 | -0.531 | – | – | –
O=[N+]([O-])c1cc([N+](=O)[O-])c(NCC2CCS(=O)(=O)C2)c([N+](=O)[O-])c1 (stereo not drawn) | -0.128 | -0.014 | 0.157 | – | – | –
